These results are taken from publication PMC8321558.

In assay [1] the target is T1, NirD (purified, untagged) (Escherichia coli) (UniProt P0A9I8).
T1 sequence (chain, biotinylated with EZ-Link NHS-PEG4-Biotin for the biolayer interferometry only): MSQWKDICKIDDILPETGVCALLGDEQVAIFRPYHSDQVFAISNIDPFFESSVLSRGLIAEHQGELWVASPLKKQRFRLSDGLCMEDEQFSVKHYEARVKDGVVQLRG
As to the kind of experiment: SEC; RelA^N-terminal and NirD alone or pre-mixed 1:1 (10 µM each); Superdex 200 10/300 GL; 50 mM Tris-HCl pH 8.0, 500 mM NaCl, 500 mM KCl, 2 mM β-mercaptoethanol, 2% glycerol; fractions analysed by SDS-PAGE; both purified. On the technique in general: In gel filtration, larger molecules generally elute earlier.

Assay [2] deals with T2, NirD^E50K (purified, untagged) (Escherichia coli) (UniProt P0A9I8).
T2 sequence (chain, biotinylated with EZ-Link NHS-PEG4-Biotin for the biolayer interferometry only): T1 sequence (chain, biotinylated with EZ-Link NHS-PEG4-Biotin for the biolayer interferometry only) with E50K
The assay can be described thus: condition: RelA^N-terminal at concentrations ranging from 0.1 to 30 µM; BLI; biotinylated NirD or NirD^E50K on streptavidin biosensors, RelA^N-terminal as analyte (up to 30 µM); BLItz, 25°C; 50 mM Tris-HCl pH 8.0, 500 mM NaCl, 500 mM KCl, 2 mM β-mercaptoethanol, 2% glycerol; KD from steady-state responses, one site model; both purified.

For assay [3], the target named is T25-SpoT^N-terminal (Escherichia coli). The assay can be described thus: two-hybrid; bacterial two-hybrid (T18 and T25 domains of B. pertussis adenylate cyclase; pUT18C and pKT25) in cya-deficient E. coli BTH101, 30°C; X-Gal plates and β-galactosidase activity.
The target in assay [4] is T25-RelA^N-terminal (Escherichia coli). The assay is described as above.
The target of assay [5] is T3, RelA^N-terminal (purified RelA catalytic domains) (Escherichia coli).
T3 sequence (P0AG20 whole entry, looked up): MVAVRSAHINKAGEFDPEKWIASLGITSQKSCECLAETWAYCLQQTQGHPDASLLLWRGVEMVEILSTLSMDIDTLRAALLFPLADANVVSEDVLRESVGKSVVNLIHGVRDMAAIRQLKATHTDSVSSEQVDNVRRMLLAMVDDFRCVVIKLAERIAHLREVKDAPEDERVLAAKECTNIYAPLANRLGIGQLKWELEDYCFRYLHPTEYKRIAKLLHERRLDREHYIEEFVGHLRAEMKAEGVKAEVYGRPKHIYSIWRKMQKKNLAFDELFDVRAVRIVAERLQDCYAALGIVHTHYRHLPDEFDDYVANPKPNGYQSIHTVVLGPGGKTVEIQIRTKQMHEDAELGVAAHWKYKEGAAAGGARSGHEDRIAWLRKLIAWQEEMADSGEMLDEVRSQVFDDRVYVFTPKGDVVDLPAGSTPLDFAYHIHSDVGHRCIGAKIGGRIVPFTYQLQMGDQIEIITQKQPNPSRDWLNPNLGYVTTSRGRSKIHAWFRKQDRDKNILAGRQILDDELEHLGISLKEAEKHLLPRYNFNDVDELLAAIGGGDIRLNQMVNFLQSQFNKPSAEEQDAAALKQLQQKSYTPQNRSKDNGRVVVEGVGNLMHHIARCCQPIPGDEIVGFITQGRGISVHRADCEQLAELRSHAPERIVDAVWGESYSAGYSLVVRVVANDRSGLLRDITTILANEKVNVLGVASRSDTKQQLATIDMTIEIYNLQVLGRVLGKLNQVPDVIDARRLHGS
The assay can be described thus: condition: 300 µM NirD^E50K in the syringe, 30 µM RelA^N-terminal in the cell; ITC; RelA^N-terminal (30 µM) in the cell, NirD or NirD^E50K (300 µM) in the syringe; 25°C; 50 mM Tris-HCl pH 8.0, 500 mM NaCl, 500 mM KCl, 2 mM β-mercaptoethanol, 2% glycerol; One Set of Sites model; both purified.

Positions count from the first letter of the chain named. Numbers in names are those of the source. These are yes or no findings as the source states them, for the method shown. For part of these data: A result given as binding can be weak or reduced; the word gives no strength. For part of these data: Tags and fused reporters may be left off the sequences shown.

Take “RelA^N-terminal (purified RelA catalytic domains) (Escherichia coli) (domain or fragment)”: the figures for the binding entry in assay [1] and in assay [2] were “binds” and “no binding”, respectively.

B1: T18-NirD (protein, UniProt P0A9I8 1-108)
chain: T1 sequence (chain, biotinylated with EZ-Link NHS-PEG4-Biotin for the biolayer interferometry only)
Consider B1, for which the values for the binding result in assay [3] and in assay [4] were “no binding” and “binds”, respectively.

B2: T18-NirD^E50K (protein, UniProt P0A9I8 1-108)
chain: T1 sequence (chain, biotinylated with EZ-Link NHS-PEG4-Biotin for the biolayer interferometry only) with E50K
For B2, in assay [4], the binding result is “no binding”.

B3: NirD^E50K (purified, untagged) (protein, UniProt P0A9I8 1-108)
chain: T1 sequence (chain, biotinylated with EZ-Link NHS-PEG4-Biotin for the biolayer interferometry only) with E50K
modifications: biotinylated with EZ-Link NHS-PEG4-Biotin for the biolayer interferometry only
On to B3, for which the binding result in assay [5] is reported as “no binding”.
